The nature of this data set: general procedure: Fmoc solid-phase peptide synthesis; Rink amide resin; Oxyma/DIC. The settings on record: analytical HPLC.

The record followed here is paper PMC9904277 (Chemical Communications (Cambridge, England), 2023).

Some peptides are written in HELM: one residue between dots, names in brackets for other building blocks, links after the first $.

As for FAM-Ahx-SAAQLTAARLK ALGDELHQRTMW-NH 2, the “final HPLC purity” value (whole synthesis) was determined as 99%.
Still for that read-out and setting: the result for FAM-Ahx-TMENLSRRLKVTGDLFDIMS-NH2 reads 83%.
For “PEPTIDE1{[ac].R.Y.G.R.E.L.R.R.M.S.D.E.F.V.D.S.F.K.K.[am]}$$$$V2.0”, where the note is “whole synthesis”, the “final HPLC purity” value is 94%.
Same read-out and setting: the result for “PEPTIDE1{[ac].S.A.A.C.L.T.A.C.R.L.K.A.L.G.D.E.L.H.Q.R.T.M.W.[am]}$$$$V2.0” reads 99%.
Consider “PEPTIDE1{[ac].S.A.A.C.L.T.A.C.R.L.K.A.L.G.D.E.L.H.Q.R.T.M.W.[am]}|CHEM1{[Mal]}$PEPTIDE1,CHEM1,5:R3-1:R1|PEPTIDE1,CHEM1,9:R3-1:R2$$$V2.0”, for which the “final HPLC purity” value (cyclisation step) came out at 99%.
In the case of “PEPTIDE1{[ac].S.A.A.Q.L.L.A.A.R.L.K.A.F.G.D.E.F.H.Q.[am]}$$$$V2.0”, the “final HPLC purity” value (whole synthesis) stood at 89%.
The same measure, in the same setting: the result for “PEPTIDE1{[ac].S.A.A.Q.L.L.A.A.R.L.K.A.L.G.D.E.L.H.Q.[am]}$$$$V2.0” reads 76%.
The same measure, in the same setting: the result for “PEPTIDE1{[ac].S.A.A.Q.L.T.A.A.R.L.C.A.L.G.C.E.L.H.Q.R.T.M.W.[am]}$$$$V2.0” reads 96%.
“PEPTIDE1{[ac].S.A.A.Q.L.T.A.A.R.L.C.A.L.G.C.E.L.H.Q.R.T.M.W.[am]}|CHEM1{[Mal]}$PEPTIDE1,CHEM1,12:R3-1:R1|PEPTIDE1,CHEM1,16:R3-1:R2$$$V2.0”: the “final HPLC purity” value (cyclisation step) is 98%.
For “PEPTIDE1{[ac].S.A.A.Q.L.T.A.A.R.L.K.A.L.C.D.E.L.C.Q.R.T.M.W.[am]}$$$$V2.0”, the “final HPLC purity” value (whole synthesis) is given as 92%.
For the substance “PEPTIDE1{[ac].S.A.A.Q.L.T.A.A.R.L.K.A.L.C.D.E.L.C.Q.R.T.M.W.[am]}|CHEM1{[Mal]}$PEPTIDE1,CHEM1,15:R3-1:R1|PEPTIDE1,CHEM1,19:R3-1:R2$$$V2.0”, the “final HPLC purity” value (cyclisation step) is 90%.
“PEPTIDE1{[ac].S.A.A.Q.L.T.A.A.R.L.K.A.L.G.C.E.L.H.C.R.T.M.W.[am]}$$$$V2.0”: where the note is “whole synthesis”, the “final HPLC purity” value is given as 84%.
Turning to “PEPTIDE1{[ac].S.A.A.Q.L.T.A.A.R.L.K.A.L.G.C.E.L.H.C.R.T.M.W.[am]}|CHEM1{[Mal]}$PEPTIDE1,CHEM1,16:R3-1:R1|PEPTIDE1,CHEM1,20:R3-1:R2$$$V2.0”, the “final HPLC purity” value (cyclisation step) came to 99%.
Turning to “PEPTIDE1{[ac].S.A.A.Q.L.T.A.A.R.L.K.A.L.G.D.C.L.H.Q.C.T.M.W.[am]}$$$$V2.0”, the “final HPLC purity” value (whole synthesis) stood at 99%.
Consider “PEPTIDE1{[ac].S.A.A.Q.L.T.A.A.R.L.K.A.L.G.D.C.L.H.Q.C.T.M.W.[am]}|CHEM1{[Mal]}$PEPTIDE1,CHEM1,17:R3-1:R1|PEPTIDE1,CHEM1,21:R3-1:R2$$$V2.0”, for which the “final HPLC purity” value (cyclisation step) amounted to 95%.
Turning to “PEPTIDE1{[ac].S.A.A.Q.L.T.A.A.R.L.K.A.L.G.D.E.L.C.Q.R.T.C.W.[am]}$$$$V2.0”, the “final HPLC purity” value (whole synthesis) is given as 97%.
On to “PEPTIDE1{[ac].S.A.A.Q.L.T.A.A.R.L.K.A.L.G.D.E.L.C.Q.R.T.C.W.[am]}|CHEM1{[Mal]}$PEPTIDE1,CHEM1,19:R3-1:R1|PEPTIDE1,CHEM1,23:R3-1:R2$$$V2.0”, for which the “final HPLC purity” value (cyclisation step) turned out to be 99%.
As to “PEPTIDE1{[ac].S.A.A.Q.L.T.A.A.R.L.K.A.L.G.D.E.L.H.Q.R.T.M.W.[am]}$$$$V2.0”, for the setting “whole synthesis”, the “final HPLC purity” value came to 98%.
The same measure, in the same setting: for “PEPTIDE1{[ac].S.A.A.Q.L.T.A.A.R.L.K.A.L.G.D.E.L.H.Q.[am]}$$$$V2.0” the value was 93%; for “PEPTIDE1{[ac].S.A.A.Q.L.T.A.A.R.L.K.C.L.G.D.C.L.H.Q.R.T.M.W.[am]}$$$$V2.0”, 99%.
In the case of “PEPTIDE1{[ac].S.A.A.Q.L.T.A.A.R.L.K.C.L.G.D.C.L.H.Q.R.T.M.W.[am]}|CHEM1{[Mal]}$PEPTIDE1,CHEM1,13:R3-1:R1|PEPTIDE1,CHEM1,17:R3-1:R2$$$V2.0”, the “final HPLC purity” value (cyclisation step) turned out to be 98%.
With “PEPTIDE1{[ac].S.A.A.Q.L.T.A.C.R.L.K.C.L.G.D.E.L.H.Q.R.T.M.W.[am]}$$$$V2.0”, the “final HPLC purity” value (whole synthesis) is reported as 99%.
With “PEPTIDE1{[ac].S.A.A.Q.L.T.A.C.R.L.K.C.L.G.D.E.L.H.Q.R.T.M.W.[am]}|CHEM1{[Mal]}$PEPTIDE1,CHEM1,9:R3-1:R1|PEPTIDE1,CHEM1,13:R3-1:R2$$$V2.0”, the “final HPLC purity” value (cyclisation step) turned out to be 91%.
Same read-out and setting: the result for “PEPTIDE1{[ac].S.A.A.Q.L.T.A.C.R.L.K.C.L.G.D.E.L.H.Q.R.T.M.W.[am]}|CHEM1{[mXyl]}$PEPTIDE1,CHEM1,9:R3-1:R1|PEPTIDE1,CHEM1,13:R3-1:R2$$$V2.0” reads 96%.
For “PEPTIDE1{[ac].S.A.A.Q.L.T.A.C.R.L.K.[hCys].L.G.D.E.L.H.Q.R.T.M.W.[am]}$$$$V2.0”, the “final HPLC purity” value (whole synthesis) came to 82%.
With “PEPTIDE1{[ac].S.A.A.Q.L.T.A.C.R.L.K.[hCys].L.G.D.E.L.H.Q.R.T.M.W.[am]}|CHEM1{[Mal]}$PEPTIDE1,CHEM1,9:R3-1:R1|PEPTIDE1,CHEM1,13:R3-1:R2$$$V2.0”, the “final HPLC purity” value (cyclisation step) is reported as 93%.
For the substance “PEPTIDE1{[ac].S.A.A.Q.L.T.A.[dC].R.L.K.[dC].L.G.D.E.L.H.Q.R.T.M.W.[am]}$$$$V2.0”, the “final HPLC purity” value (whole synthesis) was 86%.
In the case of “PEPTIDE1{[ac].S.A.A.Q.L.T.A.[dC].R.L.K.[dC].L.G.D.E.L.H.Q.R.T.M.W.[am]}|CHEM1{[Mal]}$PEPTIDE1,CHEM1,9:R3-1:R1|PEPTIDE1,CHEM1,13:R3-1:R2$$$V2.0”, the “final HPLC purity” value (cyclisation step) worked out at 90%.
Turning to “PEPTIDE1{[ac].S.A.A.Q.L.T.A.[hCys].R.L.K.[hCys].L.G.D.E.L.H.Q.R.T.M.W.[am]}$$$$V2.0”, for the setting “whole synthesis”, the “final HPLC purity” value is 97%.
Take “PEPTIDE1{[ac].S.A.A.Q.L.T.A.[hCys].R.L.K.[hCys].L.G.D.E.L.H.Q.R.T.M.W.[am]}|CHEM1{[Mal]}$PEPTIDE1,CHEM1,9:R3-1:R1|PEPTIDE1,CHEM1,13:R3-1:R2$$$V2.0”: the “final HPLC purity” value (cyclisation step) is 88%.
Regarding “PEPTIDE1{[ac].S.A.A.Q.L.T.A.[mS5].R.L.K.[mS5].L.G.D.E.L.H.Q.R.T.M.W.[am]}$$$$V2.0”, for the setting “whole synthesis”, the “final HPLC purity” value is 80%.
Same read-out and setting: the result for “PEPTIDE1{[ac].S.A.A.Q.L.T.A.[mS5st].R.L.K.[mS5st].L.G.D.E.L.H.Q.R.T.M.W.[am]}$PEPTIDE1,PEPTIDE1,9:R3-13:R3$$$V2.0” reads 99%; that for “PEPTIDE1{[ac].S.A.A.Q.L.Y.A.A.R.L.K.A.F.G.D.E.F.H.Q.[am]}$$$$V2.0”, 75%; that for “PEPTIDE1{[ac].S.A.A.Q.L.Y.A.A.R.L.K.A.L.G.D.E.F.H.Q.[am]}$$$$V2.0”, 80%.
Same read-out and setting: the result for “PEPTIDE1{[ac].S.A.A.Q.L.Y.A.A.R.L.K.A.L.G.D.E.L.H.Q.[am]}$$$$V2.0” reads 95%.
On the same count and under the same terms, the result for “PEPTIDE1{[ac].S.A.A.Q.L.Y.A.A.R.L.K.A.[Nle].G.D.E.F.H.Q.[am]}$$$$V2.0” reads 81%; that for “PEPTIDE1{[ac].S.A.A.Q.L.Y.A.C.R.L.K.C.F.G.D.E.F.H.Q.[am]}$$$$V2.0”, 95%.
In the case of “PEPTIDE1{[ac].S.A.A.Q.L.Y.A.C.R.L.K.C.F.G.D.E.F.H.Q.[am]}|CHEM1{[Mal]}$PEPTIDE1,CHEM1,9:R3-1:R1|PEPTIDE1,CHEM1,13:R3-1:R2$$$V2.0”, the “final HPLC purity” value (cyclisation step) was 95%.
For the substance “PEPTIDE1{[ac].S.A.C.Q.L.T.C.A.R.L.K.A.L.G.D.E.L.H.Q.R.T.M.W.[am]}$$$$V2.0”, the “final HPLC purity” value (whole synthesis) is 99%.
Regarding “PEPTIDE1{[ac].S.A.C.Q.L.T.C.A.R.L.K.A.L.G.D.E.L.H.Q.R.T.M.W.[am]}|CHEM1{[Mal]}$PEPTIDE1,CHEM1,4:R3-1:R1|PEPTIDE1,CHEM1,8:R3-1:R2$$$V2.0”, the “final HPLC purity” value (cyclisation step) is given as 99%.
For the substance “PEPTIDE1{[ac].S.C.A.Q.L.C.A.A.R.L.K.A.L.G.D.E.L.H.Q.R.T.M.W.[am]}$$$$V2.0”, for the setting “whole synthesis”, the “final HPLC purity” value turned out to be 89%.
“PEPTIDE1{[ac].S.C.A.Q.L.C.A.A.R.L.K.A.L.G.D.E.L.H.Q.R.T.M.W.[am]}|CHEM1{[Mal]}$PEPTIDE1,CHEM1,3:R3-1:R1|PEPTIDE1,CHEM1,7:R3-1:R2$$$V2.0”: the “final HPLC purity” value (cyclisation step) amounted to 99%.
In the case of “PEPTIDE1{[ac].T.M.E.N.L.S.R.R.L.K.V.T.G.D.L.F.D.I.M.S.[am]}$$$$V2.0”, the “final HPLC purity” value (whole synthesis) came out at 93%.
